PubChem BioAssay AID1224830 – NIAID | 2016

- Test: 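Regulators of TLR4 signalling towards TNF-alpha in macrophage-like cells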 (primary screen)
- Cell system: human THP-1 monocytic leukaemia cells, TNF dual-luciferase reporter clone, PMA-differentiated to macrophage-like cells
- Reagent: siRNA pool against human genes, 50 nM
- Timing: LPS for 4 h, given about 3 days after siRNA transfection
- Conditions: bacterial LPS (TLR4 ligand), 10 ng/ml
- Detection: 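TNF firefly reporter luminescence divided by renilla, normalised to the plate median, then turned into a robust z-score for each replicate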
- Reading the numbers: TNF reporter robust z-score: higher = stronger TNF reporter response to LPS
- Active means: 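Each well counts as active if its z-score is over 2.8 or under -1.5; controls are left without a call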
Here is an unselected part of about 18,000 deposited reagents. About 2,900 of all reagents (16%) were called active. 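Calls are made per well; low scores hint the gene aids the LPS response, high scores that it dampens it.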 Unmarked entries are inactive. Repeated entries: four replicate wells of each siRNA pool.

gene knocked down,TNF reporter robust z-score
WRNIP1 (WRN helicase interacting protein 1),2.33
WRNIP1 (WRN helicase interacting protein 1),0.17
WRNIP1 (WRN helicase interacting protein 1),2.39
WRNIP1 (WRN helicase interacting protein 1),1.59
CCNL2 (cyclin L2),-1.98 (active)
CCNL2 (cyclin L2),-1.25
CCNL2 (cyclin L2),-1.68 (active)
CCNL2 (cyclin L2),-1.81 (active)
GALNT11 (polypeptide N-acetylgalactosaminyltransferase 11),-0.25
GALNT11 (polypeptide N-acetylgalactosaminyltransferase 11),0.55
GALNT11 (polypeptide N-acetylgalactosaminyltransferase 11),0.18
GALNT11 (polypeptide N-acetylgalactosaminyltransferase 11),0.81
LYZL4 (lysozyme like 4),-0.52
LYZL4 (lysozyme like 4),-0.93
LYZL4 (lysozyme like 4),-1.42
LYZL4 (lysozyme like 4),-0.78
CCDC187 (coiled-coil domain containing 187),0.35
CCDC187 (coiled-coil domain containing 187),-0.53
CCDC187 (coiled-coil domain containing 187),0.79
CCDC187 (coiled-coil domain containing 187),0.56
RDX (radixin),-0.86
RDX (radixin),-0.92
RDX (radixin),-0.47
RDX (radixin),-0.54
UBE2M (ubiquitin conjugating enzyme E2 M),0.19
UBE2M (ubiquitin conjugating enzyme E2 M),-0.81
UBE2M (ubiquitin conjugating enzyme E2 M),0.81
UBE2M (ubiquitin conjugating enzyme E2 M),-0.06
"PMS2 (PMS1 homolog 2, mismatch repair system component)",-1.12
"PMS2 (PMS1 homolog 2, mismatch repair system component)",-0.2
"PMS2 (PMS1 homolog 2, mismatch repair system component)",0.08
"PMS2 (PMS1 homolog 2, mismatch repair system component)",0.18
PXDNL (peroxidasin like),-1.32
PXDNL (peroxidasin like),-1.42
PXDNL (peroxidasin like),-1.14
PXDNL (peroxidasin like),-0.45
ATP8B1 (ATPase phospholipid transporting 8B1),-0.75
ATP8B1 (ATPase phospholipid transporting 8B1),-0.35
ATP8B1 (ATPase phospholipid transporting 8B1),-0.34
ATP8B1 (ATPase phospholipid transporting 8B1),-0.17
CCDC59 (coiled-coil domain containing 59),-1.73 (active)
CCDC59 (coiled-coil domain containing 59),-1.57 (active)
CCDC59 (coiled-coil domain containing 59),-0.88
CCDC59 (coiled-coil domain containing 59),-0.38
FRMPD2 (FERM and PDZ domain containing 2),0.06
FRMPD2 (FERM and PDZ domain containing 2),-0.07
FRMPD2 (FERM and PDZ domain containing 2),0.23
FRMPD2 (FERM and PDZ domain containing 2),0.51
SAXO4 (stabilizer of axonemal microtubules 4),-0.13
SAXO4 (stabilizer of axonemal microtubules 4),0.4
SAXO4 (stabilizer of axonemal microtubules 4),-0.38
SAXO4 (stabilizer of axonemal microtubules 4),0.07
SLC43A1,-1.33
SLC43A1,-1.31
SLC43A1,-1.06

Continued (7 carried over from the part before).
gene knocked down,TNF reporter robust z-score
SAXO4 (stabilizer of axonemal microtubules 4),-0.13
SAXO4 (stabilizer of axonemal microtubules 4),0.4
SAXO4 (stabilizer of axonemal microtubules 4),-0.38
SAXO4 (stabilizer of axonemal microtubules 4),0.07
SLC43A1,-1.33
SLC43A1,-1.31
SLC43A1,-1.06
KRTAP2-4 (keratin associated protein 2-4),-1.1
KRTAP2-4 (keratin associated protein 2-4),-0.83
KRTAP2-4 (keratin associated protein 2-4),-0.85
KRTCAP3 (keratinocyte associated protein 3),-1.16
KRTCAP3 (keratinocyte associated protein 3),-0.33
KRTCAP3 (keratinocyte associated protein 3),-1.87 (active)
KRTCAP3 (keratinocyte associated protein 3),-1.63 (active)
ZNF552 (zinc finger protein 552),-0.02
ZNF552 (zinc finger protein 552),-0.49
ZNF552 (zinc finger protein 552),-0.87
ZNF552 (zinc finger protein 552),-0.53
MARS1 (methionyl-tRNA synthetase 1),0.06
MARS1 (methionyl-tRNA synthetase 1),-0.34
MARS1 (methionyl-tRNA synthetase 1),-0.54
MARS1 (methionyl-tRNA synthetase 1),-0.4
LAG3 (lymphocyte activating 3),-0.44
LAG3 (lymphocyte activating 3),-0.29
LAG3 (lymphocyte activating 3),-0.89
LAG3 (lymphocyte activating 3),-0.14
RNF7 (ring finger protein 7),-1.58 (active)
RNF7 (ring finger protein 7),-0.65
RNF7 (ring finger protein 7),-1.39
RNF7 (ring finger protein 7),-1.11
TMEM165 (transmembrane protein 165),-0.1
TMEM165 (transmembrane protein 165),-0.21
TMEM165 (transmembrane protein 165),-0.08
TMEM165 (transmembrane protein 165),-0.5
KRTAP5-5 (keratin associated protein 5-5),-0.15
KRTAP5-5 (keratin associated protein 5-5),4.07 (active)
KRTAP5-5 (keratin associated protein 5-5),-1.67 (active)
KRTAP5-5 (keratin associated protein 5-5),-0.51
ZBTB44 (zinc finger and BTB domain containing 44),-0.66
ZBTB44 (zinc finger and BTB domain containing 44),-0.73
ZBTB44 (zinc finger and BTB domain containing 44),-0.47
ZBTB44 (zinc finger and BTB domain containing 44),-0.52
BNIPL (BCL2 interacting protein like),-1.23
BNIPL (BCL2 interacting protein like),-0.2
BNIPL (BCL2 interacting protein like),-0.19
BNIPL (BCL2 interacting protein like),-0.66
"RBBP9 (RB binding protein 9, serine hydrolase)",-0.92
"RBBP9 (RB binding protein 9, serine hydrolase)",-0.85
"RBBP9 (RB binding protein 9, serine hydrolase)",-1.03
"RBBP9 (RB binding protein 9, serine hydrolase)",-1.31
SOCS2 (suppressor of cytokine signaling 2),-1.52 (active)
SOCS2 (suppressor of cytokine signaling 2),-1.19
SOCS2 (suppressor of cytokine signaling 2),-0.77
PAXX (PAXX non-homologous end joining factor),-0.84
PAXX (PAXX non-homologous end joining factor),-0.37
PAXX (PAXX non-homologous end joining factor),-0.39
PAXX (PAXX non-homologous end joining factor),-0.69
AFG1L (AFG1 like ATPase),-1.23
AFG1L (AFG1 like ATPase),-1.05
AFG1L (AFG1 like ATPase),-1.29
AFG1L (AFG1 like ATPase),-0.94
"RAB17 (RAB17, member RAS oncogene family)",-0.87
"RAB17 (RAB17, member RAS oncogene family)",-0.27
"RAB17 (RAB17, member RAS oncogene family)",-0.86
"RAB17 (RAB17, member RAS oncogene family)",-0.36
